# Reference: patent US20130052259A1, “LIPOSOMES COMPRISING AMPHIPATHIC DRUGS AND METHOD FOR THEIR PREPARATION” (priority 2010, published 2013)
# The name of at least one read-out is uncertain.
# Assay: In vitro release of drugs from nanoliposomes in adult bovine serum at 37° C.
# Assay type: in vitro ADME
# Conditions: drug encapsulated in nSSL (ammonium sulfate gradient)
# Method: For studying the effect of biological fluids, drug loaded nSSLs were incubated up to 96 h at 37° C. in adult bovine serum (Biological Industries, Beit Haemek, Israel).
smiles,measurement,value
"CC[C@@]1(O)C(=O)OCc2c1cc1n(c2=O)Cc2cc3c(CN(C)C)c(O)ccc3nc2-1 [Topotecan (TPT), Topotecan]",release t1/2 from liposomes,≈ 55 h
